This is one part of the list. The main result of the screen is listed elsewhere. These columns were measured beside it and carry no call. Compounds called inactive in the main read-out are mostly missing here. Words in brackets tell the shape of the fitted curve; partial curves, single points and poor fits give uncertain potencies.
Experiment: qHTS Assay to Find Inhibitors of Chronic Active B-Cell Receptor Signaling
Conditions: ABC-DLBCL IkBa-CBG/CBR reporter, luminescence ratio (green luciferase fused to IkBa over red control in TMD8 lymphoma cells), 4 h
Procedure, shortened: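 TMD8 ABC-DLBCL cells carrying doxycycline-inducible green luciferase fused to IkappaBalpha plus unfused red luciferase were exposed to compounds (up to 46 uM) for 4 hrs at 37C. Activity came from the overlap-corrected green/red luminescence ratio.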

[1] = measured here: CBR red luminescence, cell number
[2] = measured here: IkBa-CBG green luminescence

Compound | AC50 [1] | AC50 [2]
O=C(Cn1cnc2cc([N+](=O)[O-])ccc2c1=O)Nc1cccc(S(=O)(=O)N2CCOCC2)c1 | 35.5 µM [falling, single point] | 
Oc1ccc(/C=N/NC(=S)N2CCOCC2)cc1 | 3.55 µM [falling, partial curve] | 5.62 µM [falling, single point]
COc1ccccc1C(=O)N/N=C/c1ccc(Cl)s1 | 16.4 µM [falling, partial curve] | 
O=C(Nc1ccccc1)N1CCn2c(nc3ccccc32)C1 | 12.6 µM [falling, partial curve, poor fit] | 
O=C(Nc1ccc(Cl)cc1)OCCn1nnnc1C(c1ccccc1)N1CCOCC1 (stereo not drawn) | 25.9 µM [rising, single point] | 
COc1cc(C(=O)OCCNC(=O)c2ccccc2)cc(OC)c1OC | 25.1 µM [rising, partial curve, poor fit] | 
Cc1cc(C)nc(SCC(=O)N/N=C/c2cccn2-c2cccc(C(F)(F)F)c2)n1 | 35.5 µM [falling, partial curve, poor fit] | 
CN(C)C(=O)CN(c1ccc(F)c(Cl)c1)S(C)(=O)=O | 6.51 µM [falling, single point] | 
CC(=O)Nc1ccc(/C(C)=N/Nc2nc(Nc3ccccc3)nc(N3CCOCC3)n2)cc1 | 15.8 µM [falling, single point] | 
CC(C)CNC(=O)c1nn(Cc2ccccc2)c(=O)c2ccccc12 | 25.1 µM [falling, single point] | 
CCCc1nnc(NC(=O)c2nc(S(=O)(=O)Cc3cccc(C)c3)ncc2Cl)s1 | 11.2 µM [falling, partial curve] | 11.2 µM [rising, partial curve]
c1ccc(-n2ncc3c(N4CCCC4)ncnc32)cc1 | 0.708 µM [rising, full curve, poor fit] | 
CCOc1ccc(NC(=O)CN2CCN(C(=O)c3ccco3)CC2)cc1S(=O)(=O)N1CCCC1 | 5.17 µM [rising, partial curve, poor fit] | 
Cn1c(=O)cc(C(=O)N/N=C/c2ccc(F)cc2)[nH]c1=O | 31.6 µM [falling, single point] | 
COCc1nnc(NC(=O)c2ccccc2[N+](=O)[O-])s1 | 23.1 µM [rising, partial curve, poor fit] | 
COc1ccc(-n2c(SCC(N)=O)nnc2-c2ccccc2F)cc1 | 25.9 µM [rising, single point] | 
C#CC(CC)(CC)NC(=S)Nc1cccc(C(C)=O)c1 | 13 µM [rising, partial curve] | 
COc1ccc(N2C(=O)CC(NNC(=O)c3cc(C)oc3C)C2=O)cc1 (stereo not drawn) | 3.98 µM [falling, partial curve, poor fit] | 
CCOC(=O)C1=C(C)NC2=C(C(=O)C(C(=O)OCC)C(c3ccccc3OC)C2)C1c1ccccn1 (stereo not drawn) | 28.2 µM [falling, single point] | 
COC(=O)c1ccccc1NC(=O)N1c2ccccc2CC1C (stereo not drawn) | 6.51 µM [rising, partial curve, poor fit] | 

Compound | AC50 [1] | AC50 [2]
CCc1ccc(CN2CCCC(C(=O)Nc3ccc(-c4cscn4)cc3)C2)o1 (stereo not drawn) | 10 µM [falling, partial curve] | 
Cc1cccc(OCc2nnc(SCC(=O)N3c4ccccc4CC3C)n2C)c1C (stereo not drawn) | 9.2 µM [falling, partial curve, poor fit] | 
COc1ccc(C(CNC(=O)CSc2ccc(Br)cc2)N2CCOCC2)cc1 (stereo not drawn) | 5.8 µM [rising, single point] | 
Cc1cc2cc(CNC(=O)CC(C)C)ccc2n1C | 3.98 µM [rising, full curve, poor fit] | 
O=C(NCc1cccnc1)/C(=C/c1ccc(-c2cccc(Cl)c2)o1)S(=O)(=O)c1ccccc1 | 28.2 µM [falling, single point] | 
N#Cc1ccsc1NC(=O)CSc1nncs1 | 20.6 µM [falling, single point] | 
Cc1ccc(NC(=S)c2ccccc2)cc1 | 0.411 µM [rising, full curve, poor fit] | 
CCN(CC(=O)Nc1ccccc1C(=O)OC)S(=O)(=O)c1ccccc1 | 29.1 µM [rising, partial curve, poor fit] | 
Cc1ccc(-c2ccc(C(=O)Nc3ccccc3)o2)c2ccccc12 | 16.4 µM [falling, partial curve, poor fit] | 
CC1CCN(c2c(NCc3ccc(C(=O)N4c5ccccc5CC4C)cc3)c(=O)c2=O)CC1 (stereo not drawn) |  | 25.9 µM [falling, partial curve, poor fit]
COc1ccc(CCN2CC(C(=O)Nc3cccc(C(C)=O)c3)CC2=O)cc1OC (stereo not drawn) | 11.2 µM [rising, single point] | 
CCC(=O)Nc1nnc(-c2ccc(OC)cc2)o1 | 16.4 µM [falling, single point] | 
CCOc1ccc(NS(=O)(=O)c2ccc(C(=O)NCC(c3ccco3)N3CCCC3)cc2)cc1 (stereo not drawn) | 29.1 µM [rising, single point] | 
COc1ccc(-c2nn(-c3ccccc3)cc2C2CC(c3cccs3)=NN2C(=O)CCC(=O)O)cc1 (stereo not drawn) | 17.8 µM [falling, partial curve, poor fit] | 
CCN(Cc1ccccc1)S(=O)(=O)c1ccc(C(=O)N(CCCN(C)C)c2nc3cc(C)cc(C)c3s2)cc1 | 29.1 µM [falling, single point] | 
C/C(=C\C(=S)Nc1ccccc1)Nc1ccccc1 | 8.2 µM [falling, partial curve, poor fit] | 
FC(F)(F)c1cc(-c2ccccc2)nc(NC2CCCC2)n1 | 6.51 µM [rising, single point] | 
CN(C(=O)COC(=O)c1cccnc1Nc1ccccc1F)C1CCS(=O)(=O)C1 (stereo not drawn) | 13 µM [falling, partial curve, poor fit] | 
c1ccc(CN2CCN(C3=Nc4cccc5cccc3c45)CC2)cc1 | 29.1 µM [rising, single point] | 
COc1cc(/C=C/c2ccc3cccc(O)c3n2)cc(Cl)c1OC | 8.91 µM [rising, partial curve, poor fit] | 20 µM [falling, partial curve, poor fit]

Complete entries from above.
`Cc1cc2cc(CNC(=O)CC(C)C)ccc2n1C` in the list: AC50 [1]: 3.98 µM [rising, full curve, poor fit]
`Cn1c(=O)cc(C(=O)N/N=C/c2ccc(F)cc2)[nH]c1=O` in the list: AC50 [1]: 31.6 µM [falling, single point]

Source: PubChem BioAssay AID493014 (National Center for Advancing Translational Sciences (NCATS), 2011)
